# From PMC11563687
# The chains behind the UniProt entries cited, without tags or fusion partners.
# UniProt Q13185: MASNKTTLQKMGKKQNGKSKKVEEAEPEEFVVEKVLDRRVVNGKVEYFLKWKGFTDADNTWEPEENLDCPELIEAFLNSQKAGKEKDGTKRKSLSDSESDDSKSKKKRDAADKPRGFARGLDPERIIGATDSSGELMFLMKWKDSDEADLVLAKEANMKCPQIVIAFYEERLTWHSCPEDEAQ
# UniProt Q09472: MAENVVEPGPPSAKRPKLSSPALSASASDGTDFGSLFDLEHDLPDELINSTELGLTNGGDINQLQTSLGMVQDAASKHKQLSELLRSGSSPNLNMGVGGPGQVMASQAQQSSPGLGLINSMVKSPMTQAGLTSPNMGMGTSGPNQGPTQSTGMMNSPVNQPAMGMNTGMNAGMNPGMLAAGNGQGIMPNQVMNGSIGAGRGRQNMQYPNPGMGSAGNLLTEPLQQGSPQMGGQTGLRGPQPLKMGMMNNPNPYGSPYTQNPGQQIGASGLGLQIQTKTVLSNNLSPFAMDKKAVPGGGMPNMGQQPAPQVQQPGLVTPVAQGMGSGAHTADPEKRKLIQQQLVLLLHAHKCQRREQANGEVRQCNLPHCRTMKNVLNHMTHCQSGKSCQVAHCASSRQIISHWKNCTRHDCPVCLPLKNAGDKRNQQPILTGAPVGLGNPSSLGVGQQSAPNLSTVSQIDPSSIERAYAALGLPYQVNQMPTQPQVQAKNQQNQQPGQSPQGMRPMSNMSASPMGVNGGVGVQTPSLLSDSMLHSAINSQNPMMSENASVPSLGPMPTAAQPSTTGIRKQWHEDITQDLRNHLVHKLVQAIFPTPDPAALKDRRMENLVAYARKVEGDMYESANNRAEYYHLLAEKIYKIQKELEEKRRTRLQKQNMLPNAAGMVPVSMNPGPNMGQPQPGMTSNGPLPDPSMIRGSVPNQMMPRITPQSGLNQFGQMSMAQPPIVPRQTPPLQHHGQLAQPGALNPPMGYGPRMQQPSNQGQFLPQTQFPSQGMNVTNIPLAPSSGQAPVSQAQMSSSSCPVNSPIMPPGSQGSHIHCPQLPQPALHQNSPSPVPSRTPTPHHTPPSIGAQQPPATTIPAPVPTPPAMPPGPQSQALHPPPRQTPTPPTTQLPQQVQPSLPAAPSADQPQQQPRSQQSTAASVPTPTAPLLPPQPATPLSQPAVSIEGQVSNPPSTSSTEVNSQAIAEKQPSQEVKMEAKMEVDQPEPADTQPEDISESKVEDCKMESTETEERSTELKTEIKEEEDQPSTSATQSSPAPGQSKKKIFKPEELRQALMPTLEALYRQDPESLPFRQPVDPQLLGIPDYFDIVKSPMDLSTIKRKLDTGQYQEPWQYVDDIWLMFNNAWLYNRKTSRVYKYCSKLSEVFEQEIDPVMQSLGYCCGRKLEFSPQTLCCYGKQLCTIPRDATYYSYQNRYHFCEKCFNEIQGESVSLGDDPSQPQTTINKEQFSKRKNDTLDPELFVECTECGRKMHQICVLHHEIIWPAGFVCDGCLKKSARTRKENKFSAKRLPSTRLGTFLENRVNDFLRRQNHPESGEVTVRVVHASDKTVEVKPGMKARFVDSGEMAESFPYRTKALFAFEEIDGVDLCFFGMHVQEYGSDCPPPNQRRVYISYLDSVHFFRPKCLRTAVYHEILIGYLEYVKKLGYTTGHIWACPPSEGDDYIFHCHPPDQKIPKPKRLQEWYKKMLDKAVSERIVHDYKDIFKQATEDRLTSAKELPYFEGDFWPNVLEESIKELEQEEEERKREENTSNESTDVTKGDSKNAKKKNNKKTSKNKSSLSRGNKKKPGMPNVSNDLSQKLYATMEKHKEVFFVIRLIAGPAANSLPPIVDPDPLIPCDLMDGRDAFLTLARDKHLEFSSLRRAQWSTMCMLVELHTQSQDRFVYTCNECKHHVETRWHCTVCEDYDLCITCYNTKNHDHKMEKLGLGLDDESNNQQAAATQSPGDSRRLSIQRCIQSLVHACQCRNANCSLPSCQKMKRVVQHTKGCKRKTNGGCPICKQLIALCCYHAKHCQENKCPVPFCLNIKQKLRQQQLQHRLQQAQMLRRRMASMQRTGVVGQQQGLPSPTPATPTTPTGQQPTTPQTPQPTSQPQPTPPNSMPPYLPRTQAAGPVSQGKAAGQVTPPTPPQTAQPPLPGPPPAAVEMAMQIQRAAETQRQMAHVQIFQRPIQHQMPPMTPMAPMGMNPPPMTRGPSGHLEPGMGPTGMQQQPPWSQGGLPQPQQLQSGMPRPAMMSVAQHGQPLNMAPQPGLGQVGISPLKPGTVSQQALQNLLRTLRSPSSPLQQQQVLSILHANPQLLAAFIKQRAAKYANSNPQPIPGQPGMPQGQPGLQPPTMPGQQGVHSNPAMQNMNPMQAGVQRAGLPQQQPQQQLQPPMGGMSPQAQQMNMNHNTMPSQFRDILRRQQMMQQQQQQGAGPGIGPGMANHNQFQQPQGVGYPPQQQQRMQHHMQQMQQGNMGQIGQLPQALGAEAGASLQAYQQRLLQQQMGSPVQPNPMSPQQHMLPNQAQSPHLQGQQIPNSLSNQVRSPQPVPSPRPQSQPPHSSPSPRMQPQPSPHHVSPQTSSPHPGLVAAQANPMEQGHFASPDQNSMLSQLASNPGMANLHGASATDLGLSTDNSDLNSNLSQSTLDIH
# UniProt P48431: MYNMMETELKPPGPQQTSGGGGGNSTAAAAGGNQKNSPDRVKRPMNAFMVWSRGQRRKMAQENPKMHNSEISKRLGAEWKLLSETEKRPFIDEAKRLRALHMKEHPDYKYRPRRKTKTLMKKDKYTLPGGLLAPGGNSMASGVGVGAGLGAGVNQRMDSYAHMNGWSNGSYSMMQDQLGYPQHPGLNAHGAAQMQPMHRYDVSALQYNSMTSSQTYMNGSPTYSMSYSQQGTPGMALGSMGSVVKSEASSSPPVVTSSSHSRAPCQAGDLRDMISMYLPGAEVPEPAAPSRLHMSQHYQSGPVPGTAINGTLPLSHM
# Results are given in words; binding and its absence hold for the method and conditions named. In cells and extracts the contact can be indirect. Some results given as binding are weak or reduced against the parent protein; the word gives no strength.
# How the values were obtained:
# [1] = molecular target: Flag-tagged CBX3 (Flag-CBX3), in GSCs (UniProt Q13185); assay: co-IP; GSCs transduced with Flag-CBX3; endogenous EP300 detected
# [2] = molecular target: FLAG-CBX3, in HEK293T cells (UniProt Q13185); assay: co-IP; HEK293T cells with HA-EP300 and FLAG-CBX3
# [3] = molecular target: chromobox protein homolog 3 (CBX3) (human (endogenous in GSC23 and CW468)) (UniProt Q13185); assay: co-IP; endogenous proteins in lysates of patient-derived GSCs (GSC23, CW468); IP with anti-Kla antibody and reverse IP for CBX3, IgG control, immunoblot
substance,measurement,setting,value
"EP300, endogenous (from UniProt Q09472 1-2414) (enzyme)",binding,[1],binds
hemagglutinin-tagged EP300 (HA-EP300) (from UniProt Q09472 1-2414) (enzyme),binding,[2],binds
SOX2 (from UniProt P48431 1-317),binding,[3],binds
